Earlier results in patent US9682040B2, “Phospholipid depot” (priority 2010, dated 2017).
Some entries share one result that the patent states for a list of compounds.

Test system: surgical site infection (SSI) pathogens
Details: published data; vancomycin and gentamicin used individually

| Compound | MIC90 (minimum inhibitory concentration required to inhibit the growth of 90% of the organisms) [µg/mL] |
| --- | --- |
| CN[C@H](CC(C)C)C(=O)N[C@H]1C(=O)N[C@@H](CC(N)=O)C(=O)N[C@H]2C(=O)N[C@H]3C(=O)N[C@H](C(=O)N[C@H](C(=O)O)c4cc(O)cc(O)c4-c4cc3ccc4O)[C@H](O)c3ccc(c(Cl)c3)Oc3cc2cc(c3O[C@@H]2O[C@H](CO)[C@@H](O)[C@H](O)[C@H]2O[C@H]2C[C@](C)(N)[C@H](O)[C@H](C)O2)Oc2ccc(cc2Cl)[C@H]1O [vancomycin] | 1 to 4 |
| gentamicin | 1 to 4 |
